Assay results taken from publication doi:10.1101/2021.02.12.430971.
No constants are given. Whether binding was seen depends on the method and setting. In cells and extracts the contact can be indirect. Some entries that bind do so weakly or less than the wild type.

Protein sequences, listed by entry. Tags and fused reporters are not part of them. Residues count along the entry.
UniProt P08173, whole entry: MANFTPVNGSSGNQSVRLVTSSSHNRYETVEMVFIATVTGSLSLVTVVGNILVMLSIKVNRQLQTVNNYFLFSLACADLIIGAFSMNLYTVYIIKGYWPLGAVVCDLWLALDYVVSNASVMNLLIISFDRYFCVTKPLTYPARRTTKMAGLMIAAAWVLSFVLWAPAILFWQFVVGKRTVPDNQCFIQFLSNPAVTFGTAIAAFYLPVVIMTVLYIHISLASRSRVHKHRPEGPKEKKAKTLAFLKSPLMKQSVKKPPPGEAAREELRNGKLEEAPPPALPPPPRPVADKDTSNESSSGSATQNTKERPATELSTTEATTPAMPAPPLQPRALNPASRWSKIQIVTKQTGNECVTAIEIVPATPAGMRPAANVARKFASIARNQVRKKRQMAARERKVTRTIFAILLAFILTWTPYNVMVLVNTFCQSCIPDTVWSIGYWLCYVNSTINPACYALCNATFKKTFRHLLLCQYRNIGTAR
UniProt P20309, whole entry: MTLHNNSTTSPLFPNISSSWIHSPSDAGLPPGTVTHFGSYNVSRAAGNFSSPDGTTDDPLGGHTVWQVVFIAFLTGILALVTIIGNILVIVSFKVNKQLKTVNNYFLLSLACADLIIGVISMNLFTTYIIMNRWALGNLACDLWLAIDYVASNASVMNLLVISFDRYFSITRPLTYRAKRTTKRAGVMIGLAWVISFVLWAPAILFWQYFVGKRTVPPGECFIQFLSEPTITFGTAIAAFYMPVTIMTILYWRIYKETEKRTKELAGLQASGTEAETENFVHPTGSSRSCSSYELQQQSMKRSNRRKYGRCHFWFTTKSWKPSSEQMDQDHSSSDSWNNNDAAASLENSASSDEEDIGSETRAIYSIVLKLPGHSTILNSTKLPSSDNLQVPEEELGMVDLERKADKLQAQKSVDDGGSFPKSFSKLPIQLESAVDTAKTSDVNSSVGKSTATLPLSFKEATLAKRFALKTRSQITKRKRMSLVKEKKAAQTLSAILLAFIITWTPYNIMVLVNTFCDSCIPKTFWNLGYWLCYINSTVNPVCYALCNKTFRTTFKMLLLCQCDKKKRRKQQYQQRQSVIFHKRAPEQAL
UniProt P21730, whole entry: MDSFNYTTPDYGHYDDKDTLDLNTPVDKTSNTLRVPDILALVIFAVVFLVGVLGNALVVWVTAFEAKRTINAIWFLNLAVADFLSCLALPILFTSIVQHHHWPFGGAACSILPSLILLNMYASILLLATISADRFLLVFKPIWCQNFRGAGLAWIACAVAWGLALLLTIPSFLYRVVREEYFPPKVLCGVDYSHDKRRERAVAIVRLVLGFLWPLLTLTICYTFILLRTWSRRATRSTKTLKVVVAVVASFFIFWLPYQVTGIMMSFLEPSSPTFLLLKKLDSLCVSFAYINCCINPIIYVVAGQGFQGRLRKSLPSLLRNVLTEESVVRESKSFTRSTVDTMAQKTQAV
UniProt P08912, whole entry: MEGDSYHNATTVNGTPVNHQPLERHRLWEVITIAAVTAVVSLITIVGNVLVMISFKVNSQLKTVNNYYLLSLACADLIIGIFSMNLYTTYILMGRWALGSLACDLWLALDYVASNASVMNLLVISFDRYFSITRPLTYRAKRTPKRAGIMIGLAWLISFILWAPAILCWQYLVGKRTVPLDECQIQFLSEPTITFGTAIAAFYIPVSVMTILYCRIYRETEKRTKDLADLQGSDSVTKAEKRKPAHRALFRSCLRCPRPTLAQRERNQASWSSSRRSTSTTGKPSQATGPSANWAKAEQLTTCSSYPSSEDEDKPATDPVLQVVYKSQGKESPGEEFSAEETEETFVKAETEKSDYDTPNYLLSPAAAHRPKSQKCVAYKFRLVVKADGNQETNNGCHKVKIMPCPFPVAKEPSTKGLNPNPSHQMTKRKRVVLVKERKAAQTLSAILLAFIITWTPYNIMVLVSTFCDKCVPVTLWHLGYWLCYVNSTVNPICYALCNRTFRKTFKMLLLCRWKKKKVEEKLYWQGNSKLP
UniProt Q03431, 27-593: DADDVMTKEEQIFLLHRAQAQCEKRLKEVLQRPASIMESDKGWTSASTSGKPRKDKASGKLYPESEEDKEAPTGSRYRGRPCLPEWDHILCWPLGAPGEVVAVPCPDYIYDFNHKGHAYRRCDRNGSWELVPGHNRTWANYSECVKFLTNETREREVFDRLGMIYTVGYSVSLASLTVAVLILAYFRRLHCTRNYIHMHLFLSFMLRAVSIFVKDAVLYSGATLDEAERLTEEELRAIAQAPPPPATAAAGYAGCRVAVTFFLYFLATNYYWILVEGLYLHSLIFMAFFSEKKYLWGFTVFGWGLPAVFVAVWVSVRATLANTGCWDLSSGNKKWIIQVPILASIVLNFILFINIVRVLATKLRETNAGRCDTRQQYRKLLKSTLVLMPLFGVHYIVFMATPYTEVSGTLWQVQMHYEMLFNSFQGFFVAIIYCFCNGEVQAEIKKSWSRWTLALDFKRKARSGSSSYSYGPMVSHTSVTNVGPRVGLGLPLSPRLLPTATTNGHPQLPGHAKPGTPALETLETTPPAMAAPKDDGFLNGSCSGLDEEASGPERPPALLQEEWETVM
UniProt P17870, whole entry: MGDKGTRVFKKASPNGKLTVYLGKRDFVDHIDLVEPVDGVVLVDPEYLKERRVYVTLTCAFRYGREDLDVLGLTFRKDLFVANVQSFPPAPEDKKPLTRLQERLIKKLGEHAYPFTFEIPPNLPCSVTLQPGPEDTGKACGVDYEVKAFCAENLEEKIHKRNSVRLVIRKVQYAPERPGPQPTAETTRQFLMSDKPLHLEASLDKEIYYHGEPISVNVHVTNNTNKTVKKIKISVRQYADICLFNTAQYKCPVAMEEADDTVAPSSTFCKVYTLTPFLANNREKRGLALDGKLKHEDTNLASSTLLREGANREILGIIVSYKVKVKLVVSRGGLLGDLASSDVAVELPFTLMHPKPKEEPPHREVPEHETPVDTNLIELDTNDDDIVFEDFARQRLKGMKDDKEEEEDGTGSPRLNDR
UniProt P32120, whole entry: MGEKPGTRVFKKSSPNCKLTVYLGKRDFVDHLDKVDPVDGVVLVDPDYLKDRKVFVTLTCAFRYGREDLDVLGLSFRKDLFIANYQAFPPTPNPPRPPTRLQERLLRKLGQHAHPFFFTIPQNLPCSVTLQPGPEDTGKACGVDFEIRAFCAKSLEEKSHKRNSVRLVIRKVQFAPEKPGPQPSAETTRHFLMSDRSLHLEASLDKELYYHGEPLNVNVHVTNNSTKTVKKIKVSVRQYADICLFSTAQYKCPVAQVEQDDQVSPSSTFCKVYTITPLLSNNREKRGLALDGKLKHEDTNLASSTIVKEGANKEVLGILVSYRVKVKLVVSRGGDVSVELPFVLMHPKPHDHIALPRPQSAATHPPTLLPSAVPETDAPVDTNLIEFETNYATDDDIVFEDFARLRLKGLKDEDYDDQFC

Key:
Test in all cases: FRET or BRET
[1] = target: muscarinic 4 acetylcholine receptor-NanoLuc (human) (UniProt P08173)
[2] = target: muscarinic 3 acetylcholine receptor-NanoLuc (human) (UniProt P20309)
[3] = target: Angiotensin 1 receptor-NanoLuc (human) (UniProt P30556)
[4] = target: complement 5a receptor 1-NanoLuc (human) (UniProt P21730)
[5] = target: muscarinic M5 acetylcholine receptor-NanoLuc (human) (UniProt P08912)
[6] = target: parathyroid hormone 1 receptor-Halo-Tag (human) (UniProt Q03431)

Measured: binding

Halo-Tag-β-arrestin1 (from UniProt P17870 1-418)
not listed: [6]
binds: all other assays above

Halo-Tag-β-arrestin2 (from UniProt P32120 1-420)
not listed: [6]
binds: all other assays above

β-arrestin1-NanoLuc (from UniProt P17870 1-418)
binds: [6]

β-arrestin2-NanoLuc (from UniProt P32120 1-420)
binds: [6]
